Results reported in PubChem BioAssay AID624297 (National Center for Advancing Translational Sciences (NCATS), 2012).
About 6,200 (1.8%) of roughly 340,000 compounds were called active. The shares of active, inactive and inconclusive entries below differ from those in the screen. Calls come from the whole dose curve; as a rule, active = well fitted activation curve with a large enough effect; inconclusive = small, poorly fitted or top-dose-only effect; inactive = no such curve, though single readings can be large or run the other way. Potencies of inconclusive entries are doubtful fits and often do not repeat.

Test: A quantitative high throughput screen for small molecules that induce DNA re-replication in SW480 colon adenocarcinoma cells. For re-replication activation: % of control where 0% means no effect. Note: nearly all actives have a fitted effect of over 55% in size.
Conditions: Hoechst DNA content imaging, 48 h; re-replication activation: at 46.1 µM (top of the series) unless noted
Outline: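 Cells (250 per well) received 23 nL compound or DMSO by pin tool and were kept 48 hr at 37 C, 5% CO2. Nuclei were then stained with Hoechst for 40 min and scanned for DNA content.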
Potency is the fitted concentration of half-maximal effect.

Question: With `Cc1cc(C)cc(C(=O)N2CC(=O)Nc3ccccc32)c1` as the compound, how does the Potency read?
Answer: active: 0.731 µM

Question: For `Cc1ccccc1C(=O)c1cccn1CC(=O)N1CCCCC1`, which “re-replication activation” value is on record?
Answer: inactive: 0.656%

Question: With `Cc1ccc(CN2C3=NCCCN3c3ccccc32)cc1` as the compound, how does the Potency read?
Answer: inconclusive: 29.1 µM [activator, single point]

Question: Which Potency does the source give for `COc1ccc(/C=N/NC(=O)CN(c2ccc(OC)cc2)S(=O)(=O)c2ccccc2)cc1` here?
Answer: inconclusive: 20.6 µM [activator, partial curve, poor fit]

Question: For `O=C(Nc1ccc(Nc2ccccc2)cc1)c1ccc(Cl)cc1Cl`, which Potency is on record?
Answer: inconclusive: 5.17 µM [activator, partial curve, poor fit]

Question: For `c1ccc(C2=Nn3c(nnc3-c3ccncc3)SC2)cc1`, which Potency is on record?
Answer: inconclusive: 16.4 µM [activator, partial curve, poor fit]

Question: With `Nc1c2ccccc2nc2ccccc12` as the compound, how does the Potency read?
Answer: active: 23.1 µM

Question: Which Potency does the source give for `C=CCC1(C(=O)NCCO)CCN(C(=O)OC(C)(C)C)CC1` here?
Answer: inconclusive: 0.206 µM [activator, full curve, poor fit]

Question: With `Cc1cc(Cl)ccc1NC(=S)N1CCN(Cc2ccc3c(c2)OCO3)CC1` as the compound, how does the Potency read?
Answer: inconclusive: 2.31 µM [activator, partial curve, poor fit]

Question: Which “re-replication activation” value does the source give for `Cc1nc2ccccn2c1C(=O)N/N=C/c1cc(C)n(-c2ccc(Br)cc2)c1C` here?
Answer: inactive: 15.1%

Question: With `COCCn1c(=NC(=O)C2COc3ccccc3O2)sc2cc(S(N)(=O)=O)ccc21` (stereo not given) as the compound, how does the “re-replication activation” value read?
Answer: inactive: 0.664%

Question: With `Cc1cc(C)c2c(N)c(C(=O)N/N=C/c3cccnc3)sc2n1` as the compound, how does the Potency read?
Answer: inconclusive: 6.51 µM [activator, partial curve, poor fit]

Question: Which Potency does the source give for `CCc1cccc(CC)c1NC(=O)C1SC(=Nc2ccccc2C)C(c2nc3ccccc3s2)=C1N` (stereo not given) here?
Answer: active: 8.2 µM

Question: With `Cc1cc(=O)oc2cc(NC(=O)COc3cccc(C(F)(F)F)c3)ccc12` as the compound, how does the Potency read?
Answer: inconclusive: 5.8 µM [activator, full curve, poor fit]

Question: For `Cc1ccccc1NS(=O)(=O)c1ccc(C(=O)NCC(c2ccccc2)N(C)C)cc1` (stereo not given), which “re-replication activation” value is on record?
Answer: inactive: -20%

Question: Which Potency does the source give for `Cc1cc(=O)oc2cc(OCC(=O)OC(C)C(=O)Nc3ccc(S(N)(=O)=O)cc3)ccc12` (stereo not given) here?
Answer: inconclusive: 29.1 µM [activator, single point]

Question: With `Cc1sc(NC(=O)c2ccco2)c(CN2CCN(Cc3ccccc3)CC2)c1C` as the compound, how does the Potency read?
Answer: inconclusive: 18.4 µM [activator, single point]

Question: For `O=C(Nc1ccccc1C(=O)NCCN1CCOCC1)c1cccc([N+](=O)[O-])c1`, which Potency is on record?
Answer: inconclusive: 32.6 µM [activator, partial curve, poor fit]

Question: Which Potency does the source give for `CN(C)c1nc(N/N=C/c2c[nH]c3ccccc23)nc(N2CCOCC2)n1` here?
Answer: active: 14.6 µM

Question: Which “re-replication activation” value does the source give for `O=C(Nc1cc(-c2ccccc2)[nH]n1)c1ccccc1F` here?
Answer: inactive: 5.61%

Question: Which Potency does the source give for `O=C(CNC(=O)c1ccc(S(=O)(=O)N2CCCC2)cc1)N/N=C/c1ccc(Cl)cc1Cl` here?
Answer: inconclusive: 29.1 µM [activator, single point]

Question: Which Potency does the source give for `CCN(c1ccccc1)S(=O)(=O)c1ccc(C(=O)N2CCCC(C(F)(F)F)C2)cc1` (stereo not given) here?
Answer: inconclusive: 29.1 µM [activator, single point]

Question: Which “re-replication activation” value does the source give for `Cc1nc2ccc(N=NN(C)C)cc2[nH]1` here?
Answer: inactive: -0.0662%

Question: With `Cc1cccc(NC(=O)c2sc3nc(N)c(C#N)cc3c2N)c1` as the compound, how does the Potency read?
Answer: inconclusive: 32.6 µM [activator, partial curve, poor fit]

Question: With `CCn1c(C)c(C(C)=O)c(N2CCN(c3cccc(Cl)c3)CC2)nc1=S` as the compound, how does the “re-replication activation” value read?
Answer: inactive: -1.41%

Question: Which Potency does the source give for `COc1cccc2cc(C(=O)C3=C(O)C(=O)N(CCN(C)C)C3c3ccc(F)cc3)oc12` (stereo not given) here?
Answer: active: 8.2 µM

Question: Which “re-replication activation” value does the source give for `Cc1ccccc1N1C(=O)CC(N(O)c2ccccc2)C1=O` (stereo not given) here?
Answer: inactive: -4.64%

Question: For `CCCCC[C@@H]1C=C(C(=O)O)[C@H](c2ccc(C#N)cc2)N1S(=O)(=O)c1ccc(C)cc1`, which “re-replication activation” value is on record?
Answer: inactive: -62.7%

Question: With `CCCOc1ccc(N)cc1N` as the compound, how does the Potency read?
Answer: inconclusive: 20.6 µM [activator, single point]

Question: Which Potency does the source give for `Cc1ccc2c(c1)C1C=CCC1C(C(=O)NCCCN1CCOCC1)N2` (stereo not given) here?
Answer: inconclusive: 1.84 µM [activator, partial curve, poor fit]

Question: Which “re-replication activation” value does the source give for `Cc1ccc(NC(=O)Cc2ccc(-c3ccccc3)cc2)nc1` here?
Answer: inactive: 26.5%

Question: Which Potency does the source give for `COc1ccc(-n2cnc(N)c2C(=O)c2cccc([N+](=O)[O-])c2)cc1` here?
Answer: inconclusive: 18.4 µM [activator, single point]

Question: For `O=C(CNC(=O)c1ccco1)N/N=C/c1cc(Br)ccc1O`, which Potency is on record?
Answer: inconclusive: 3.66 µM [activator, single point]

Question: Which Potency does the source give for `CC(=O)c1cc(C#N)c(SCc2ccccn2)nc1C` here?
Answer: inconclusive: 9.2 µM [activator, partial curve, poor fit]

Question: For `COc1ccccc1NS(=O)(=O)c1cc(C(=O)NCC(c2ccco2)N2CCCCC2)ccc1C` (stereo not given), which Potency is on record?
Answer: inconclusive: 16.4 µM [activator, single point]

Question: Which “re-replication activation” value does the source give for `COCCn1c(C)cc(C(=O)COC(=O)c2ccc([N+](=O)[O-])o2)c1C` here?
Answer: inactive: 23.6%

Question: For `c1ccc(COc2cccc(CNCc3cccnc3)c2)cc1`, which Potency is on record?
Answer: inconclusive: 6.51 µM [activator, partial curve, poor fit]

Question: With `O=C(NCCO)C(F)(F)C(F)(F)C(F)(F)OC(F)(C(=O)NCCO)C(F)(F)F` (stereo not given) as the compound, how does the “re-replication activation” value read?
Answer: inactive: -0.529%

Question: For `COc1ccc(C2CC(c3ccccc3O)=NN2c2ccccc2)cc1` (stereo not given), which Potency is on record?
Answer: active: 18.4 µM

Question: With `Nc1ccc(S(=O)(=O)c2ccc(N)nc2)cc1` as the compound, how does the “re-replication activation” value read?
Answer: inactive: -2.73%

Question: With `Cc1cccc(C2=NN(c3ccc(Br)cc3)[C@@H](C(=O)N3CCOC3=O)[C@@H]2c2ccccc2)c1` as the compound, how does the Potency read?
Answer: inconclusive: 18.4 µM [activator, partial curve, poor fit]

Question: Which Potency does the source give for `O=C(Nc1nc2ccccc2[nH]1)C1CC1` here?
Answer: active: 20.6 µM

Question: For `COc1ccc(Cn2c(N)c(C#N)c3nc4ccccc4nc32)cc1OC`, which Potency is on record?
Answer: active: 10.3 µM

Question: With `O=C(CNC(=O)C1CC(=O)N(c2cccc3ccccc23)C1)Nc1ccccc1Br` (stereo not given) as the compound, how does the Potency read?
Answer: inconclusive: 0.411 µM [activator, full curve, poor fit]

Question: With `COc1ccc(C(C)(C)C)cc1NC(=O)CCn1[nH]c(=O)ccc1=O` as the compound, how does the Potency read?
Answer: inconclusive: 23.1 µM [activator, single point]

Question: For `COC1C(CO)OC(n2c3c(Cl)cccc3c3c4c(c5c6cccc(Cl)c6[nH]c5c32)C(=O)NC4=O)C(O)C1O` (stereo not given), which Potency is on record?
Answer: active: 1.64 µM

Question: For `Cc1noc(C)c1Cc1ccc(O)cc1`, which Potency is on record?
Answer: inconclusive: 29.1 µM [activator, single point]

Question: With `C=CC[C@@H](CC(=O)N[C@H](CO)Cc1ccccc1)C(=O)N[C@@H](COC(=O)[C@@H](CC=C)CC(=O)OC(C)(C)C)Cc1ccccc1` as the compound, how does the “re-replication activation” value read?
Answer: inactive: 14.9%

Question: For `Cc1ccc(S(=O)(=O)NCc2ccccc2)cc1C(=O)N1CCN(S(=O)(=O)c2ccccc2)CC1`, which “re-replication activation” value is on record?
Answer: inactive: -5.46%

Question: With `O=C(CSc1nnnn1C1CCCC1)NCc1cccs1` as the compound, how does the Potency read?
Answer: inconclusive: 0.92 µM [activator, single point]

Question: With `COc1ccc(C)cc1COC(=O)c1[nH]c(C)c(C(C)=O)c1C` as the compound, how does the “re-replication activation” value read?
Answer: inactive: -0.299%

Question: With `COCCn1c(-c2ccc(C)cc2)nc2oc3cc(OC)ccc3c(=O)c2c1=O` as the compound, how does the Potency read?
Answer: inconclusive: 1.64 µM [activator, full curve, poor fit]

Question: With `Cc1ccc(N(C(C)C(=O)Nc2ccc3c(c2)OCO3)S(C)(=O)=O)cc1` (stereo not given) as the compound, how does the Potency read?
Answer: inconclusive: 25.9 µM [activator, single point]

Question: Which “re-replication activation” value does the source give for `O=C(C1CCCN1S(=O)(=O)c1ccc(Cl)c(Cl)c1)N1CCOCC1` (stereo not given) here?
Answer: inactive: -0.325%

Question: For `Cc1ccc(S(=O)(=O)N2CCC(C(=O)OCC(=O)N3CC(C)CC(C)C3)CC2)cc1C` (stereo not given), which Potency is on record?
Answer: inconclusive: 29.1 µM [activator, single point]

Question: Which Potency does the source give for `CCCCCCC(O)(CCN1CCCCC1)c1ccccc1` (stereo not given) here?
Answer: inconclusive: 29.1 µM [activator, single point]

Question: Which Potency does the source give for `COc1ccc(CNc2ccc3c(c2)ncn3-c2ccccc2OC)cc1` here?
Answer: inconclusive: 32.6 µM [activator, single point]

Question: For `N#Cc1ccc(C(=O)N/N=C/c2cn(CC(=O)O)c3ccccc23)c(F)c1`, which Potency is on record?
Answer: inconclusive: 6.51 µM [activator, single point]

Question: For `CCOC(=O)C1=Nc2ccccc2C1=[N+]=[N-]`, which Potency is on record?
Answer: inconclusive: 18.4 µM [activator, single point]

Question: Which “re-replication activation” value does the source give for `CCN(CC)S(=O)(=O)c1cccc(NC(=O)c2ccc(-n3nc(C)cc3C)cc2)c1` here?
Answer: inactive: -25.5%

Question: Which Potency does the source give for `CCn1cc([N+](=O)[O-])c(C(=O)Nc2nc(-c3ccc(C)c(C)c3)c(C)s2)n1` here?
Answer: inconclusive: 18.4 µM [activator, single point]

Question: Which Potency does the source give for `CC(C)/C=N/Nc1nc(-c2ccc(Br)cc2)cs1` here?
Answer: inconclusive: 0.651 µM [activator, full curve]

Question: Which Potency does the source give for `CCc1cc(-c2n[nH]c(C)c2Oc2ccc(C(C)C)cc2)c(O)cc1O` here?
Answer: inconclusive: 18.4 µM [activator, single point]

Question: With `NS(=O)(=O)c1ccc(Nc2ccc3nonc3c2[N+](=O)[O-])cc1` as the compound, how does the Potency read?
Answer: inconclusive: 23.1 µM [activator, single point]

Question: With `Cc1cc(C)c2c(n1)sc1c(-c3ccccc3)c(C#N)c(N)nc12` as the compound, how does the Potency read?
Answer: inconclusive: 1.84 µM [activator, full curve]

Question: Which Potency does the source give for `CC(C)Cc1ccc(CN2CCCC(NC(=O)c3cnc4ccccn4c3=O)C2)cc1` (stereo not given) here?
Answer: inconclusive: 18.4 µM [activator, single point]

Question: With `CC1(c2ccc(OC(F)F)cc2)NC(=O)N(CC(=O)Nc2cccc(F)c2)C1=O` (stereo not given) as the compound, how does the Potency read?
Answer: inconclusive: 16.4 µM [activator, single point]

Question: Which “re-replication activation” value does the source give for `C/C(=N\NC1=NCCN1)c1ccccc1` here?
Answer: inactive: -8.87%

Question: Which “re-replication activation” value does the source give for `CN(C)/C=N/c1ncc(C(=O)c2ccc(Cl)cc2)s1` here?
Answer: inactive: -2.6%

Question: For `Cc1cc(C(=O)Nc2ccc(Cl)cc2)c(C)n1-c1ccccc1`, which Potency is on record?
Answer: inconclusive: 18.4 µM [activator, single point]
